Results published in publication PMC11402782.
No constants are given. Whether binding was seen depends on the method and setting. Binding seen in cells or lysates may run through a third protein. A yes stands for co-enrichment or nearness to the bait. Other partners may have been found. Tags and fused reporters may be left off the sequences shown.

By UniProt entry, the sequences of proteins in these tests, tags left out. Where a name states a change or a piece, a line headed by the entry shows the natural chain unless it says otherwise. Chains listed by the source or under a name are the forms on record and can include a tag or linker.
YFP-tagged PML-V (P29590, form named): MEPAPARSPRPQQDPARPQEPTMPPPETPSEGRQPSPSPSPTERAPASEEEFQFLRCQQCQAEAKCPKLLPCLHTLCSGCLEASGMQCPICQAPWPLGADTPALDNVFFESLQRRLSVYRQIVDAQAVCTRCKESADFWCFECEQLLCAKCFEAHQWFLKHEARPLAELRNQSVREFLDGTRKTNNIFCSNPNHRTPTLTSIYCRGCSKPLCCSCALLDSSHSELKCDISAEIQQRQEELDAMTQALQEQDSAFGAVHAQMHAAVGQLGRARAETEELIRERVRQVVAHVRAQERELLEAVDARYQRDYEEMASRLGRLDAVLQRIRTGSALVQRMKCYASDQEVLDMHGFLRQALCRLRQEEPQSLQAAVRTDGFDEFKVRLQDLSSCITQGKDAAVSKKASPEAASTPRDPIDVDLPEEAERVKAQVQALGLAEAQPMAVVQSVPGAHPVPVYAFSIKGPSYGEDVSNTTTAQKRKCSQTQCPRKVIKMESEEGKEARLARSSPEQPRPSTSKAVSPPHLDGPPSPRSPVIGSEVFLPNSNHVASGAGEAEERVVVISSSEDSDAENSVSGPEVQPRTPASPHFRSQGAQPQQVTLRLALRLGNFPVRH

Target: YFP-tagged PML-V (UniProt P29590)
Assay: affinity purification with mass spectrometry; U2OS PML-KO/YFP–PML cells in SILAC medium, 1 µM arsenic for 2 h (heavy) or untreated (light); PML bodies enriched with GFP nanobody crosslinked to magnetic beads; a single experiment

B1: TOPORS (endogenous, U2OS PML-KO/YFP–PML cells) (protein, UniProt Q9NS56 1-1045)
chain: MGSQPPLGSPLSREEGEAPPPAPASEGRRRSRRVRLRGSCRHRPSFLGCRELAASAPARPAPASSEIMASAAKEFKMDNFSPKAGTSKLQQTVPADASPDSKCPICLDRFDNVSYLDRCLHKFCFRCVQEWSKNKAECPLCKQPFDSIFHSVRAEDDFKEYVLRPSYNGSFVTPDRRFRYRTTLTRERNASVYSPSGPVNRRTTTPPDSGVLFEGLGISTRPRDVEIPQFMRQIAVRRPTTADERSLRKIQEQDIINFRRTLYRAGARVRNIEDGGRYRDISAEFFRRNPACLHRLVPWLKRELTVLFGAHGSLVNIVQHIIMSNVTRYDLESQAFVSDLRPFLLNRTEHFIHEFISFARSPFNMAAFDQHANYDCPAPSYEEGSHSDSSVITISPDEAETQELDINVATVSQAPWDDETPGPSYSSSEQVHVTMSSLLNTSDSSDEELVTGGATSQIQGVQTNDDLNNDSDDSSDNCVIVGFVKPLAERTPELVELSSDSEDLGSYEKMETVKTQEQEQSYSSGDSDVSRCSSPHSVLGKDEQINKGHCDSSTRIKSKKEEKRSTSLSSPRNLNSSVRGDRVYSPYNHRHRKRGRSRSSDSRSQSRSGHDQKNHRKHHGKKRMKSKRSRSRESSRPRGRRDKKRSRTRDSSWSRRSQTLSLSSESTSRSRSRSSDHGKRRSRSRNRDRYYLRNNYGSRYKWEYTYYSRNKDRDGYESSYRRRTLSRAHYSRQSSSPEFRVQSFSERTNARKKNNHSERKYYYYERHRSRSLSSNRSRTASTGTDRVRNEKPGGKRKYKTRHLEGTNEVAQPSREFASKAKDSHYQKSSSKLDGNYKNESDTFSDSRSSDRETKHKRRKRKTRSLSVEIVYEGKATDTTKHHKKKKKKHKKKHKKHHGDNASRSPVVITIDSDSDKDSEVKEDTECDNSGPQDPLQNEFLAPSLEPFETKDVVTIEAEFGVLDKECDIATLSNNLNNANKTVDNIPPLAASVEQTLDVREESTFVSDLENQPSNIVSLQTEPSRQLPSPRTSLMSVCLGRDCDMS
binding: binds
